Results are given in words; binding and its absence hold for the method and conditions named. In cells and extracts the contact can be indirect. Some entries that bind do so weakly or less than the wild type.
Target: Smad3 (mouse (endogenous in primary mouse mesangial cells)) (UniProt Q8BUN5)
Assay: co-IP; nuclear protein of primary mouse mesangial cells with or without TGFβ1 (6 h); immunoprecipitated with 1 µg Smad3 antibody overnight at 4 °C, protein G-agarose 2 h at 4 °C; immunoblot for FoxP1 or Stat5

Amino acid sequences for entries named in this document (tags omitted).
UniProt Q8BUN5: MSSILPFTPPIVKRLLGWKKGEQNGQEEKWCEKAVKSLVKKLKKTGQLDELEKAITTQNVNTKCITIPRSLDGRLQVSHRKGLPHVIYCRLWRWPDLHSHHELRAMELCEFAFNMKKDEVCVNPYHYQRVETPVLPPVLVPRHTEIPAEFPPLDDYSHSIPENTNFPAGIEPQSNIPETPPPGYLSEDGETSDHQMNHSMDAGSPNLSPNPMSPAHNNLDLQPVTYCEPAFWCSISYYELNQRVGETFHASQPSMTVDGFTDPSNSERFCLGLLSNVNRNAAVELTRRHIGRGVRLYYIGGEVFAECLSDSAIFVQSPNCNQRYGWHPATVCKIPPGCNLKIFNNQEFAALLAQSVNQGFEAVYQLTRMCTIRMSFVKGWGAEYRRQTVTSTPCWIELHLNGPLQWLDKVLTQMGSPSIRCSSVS
UniProt P58462: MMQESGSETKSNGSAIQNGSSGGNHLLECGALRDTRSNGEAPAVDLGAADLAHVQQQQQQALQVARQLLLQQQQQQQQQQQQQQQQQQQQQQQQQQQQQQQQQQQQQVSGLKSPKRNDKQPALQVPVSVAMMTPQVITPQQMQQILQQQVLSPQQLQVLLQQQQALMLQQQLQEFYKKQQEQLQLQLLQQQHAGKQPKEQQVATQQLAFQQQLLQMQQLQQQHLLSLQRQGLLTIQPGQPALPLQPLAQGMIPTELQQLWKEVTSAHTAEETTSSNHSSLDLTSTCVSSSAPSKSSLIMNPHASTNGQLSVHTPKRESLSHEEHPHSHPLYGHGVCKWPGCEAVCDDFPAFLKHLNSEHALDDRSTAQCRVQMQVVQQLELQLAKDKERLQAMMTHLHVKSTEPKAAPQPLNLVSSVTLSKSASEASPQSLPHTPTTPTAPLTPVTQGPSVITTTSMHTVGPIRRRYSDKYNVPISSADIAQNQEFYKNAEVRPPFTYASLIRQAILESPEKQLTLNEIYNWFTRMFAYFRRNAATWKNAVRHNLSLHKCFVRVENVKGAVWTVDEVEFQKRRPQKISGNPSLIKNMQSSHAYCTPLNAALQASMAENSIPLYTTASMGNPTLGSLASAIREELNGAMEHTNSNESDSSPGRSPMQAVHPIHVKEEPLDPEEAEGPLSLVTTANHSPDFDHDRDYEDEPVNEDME

Substance: forkhead box transcription factor 1 (FoxP1) (from UniProt P58462 1-705)
- binding: binds
